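Whole-cell growth test on Mycobacterium tuberculosis, read after 3 days in glucose-containing 7H9 medium; the read-out is not stated. Tested at 500 µM. Higher reads as more growth inhibition (inferred: compounds with an IC50 in retests scored well above the rest). Size under these conditions: about 18,000 compounds, about 1,400 of them at 50% or above in at least one test.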

The filed quantity is “Percent Effect” (%).
The record does not define 0% and 100%; most values in the screen are far below 50% and negative numbers occur (in some assays of this library far below -100).
Compounds were drawn at random from those tested, without regard to their results.

For Cc1ccc(CNCc2csnn2)c(N2CCCC2)n1 the result was 25.53%.
For CCC[C@H]1CN(C(=O)c2ccc(CO)o2)C[C@@H]1N(C)C the result was 9.3%.
For NCCc1nnc(N)o1 the result was 0.5903%.
For CCC(CCO)NS(=O)(=O)c1cccc2ncccc12 (stereo unspecified) the result was 14.41%.
For NC(=O)CN1CCC(C(O)c2ccccc2)CC1 (stereo unspecified) the result was 10.59%.
For c1cc(N2CCCNCC2)ccn1 the result was -6.828%.
For NC1CCN(c2cccs2)CC1 the result was 39.01%.
For Cc1ccc(CC(=O)N2CCNCC2)cc1 the result was 16.77%.
For N#Cc1c(CCCN)nn(-c2ccccc2)c1N the result was 35.39%.
For NCc1cnc2ccccc2c1 the result was 5.523%.
For CN(Cc1cc[nH]n1)C(=O)C1COc2ccccc2C1 (stereo unspecified) the result was 28.57%.
For CS(=O)(=O)CCCNc1ccccc1F the result was 2.005%.
For CCc1nc(COC2CCNCC2)no1 the result was 1.95%.
For Cc1cccc(OCC(O)Cn2ccnc2C)c1 (stereo unspecified) the result was -5.322%.
For COC(=O)[C@@H]1CNC[C@H]1C the result was -10.28%.
For N#CCCN1CCC(C(=O)NCc2ccccc2)CC1 the result was 2.514%.
For O=C(COC(=O)C1=COCCO1)Nc1ccc(I)cc1 the result was 5.887%.
For CC(C)(C)OC(=O)N[C@@H]1CCO[C@H]1C1CCNCC1 the result was -3.83%.
For CCC(=O)Nc1ccc2c(c1)C(=O)N(CC(C)C)C2=O the result was 7.463%.
For CCCc1noc(CN2CCN(CC(O)CC)CC2)n1 (stereo unspecified) the result was 5.661%.
For NC(=O)C1CCN(C(=O)NCCc2ccccn2)CC1 the result was 1.225%.
For O=C(Nc1ncccc1O)c1cnns1 the result was -4.341%.
For Cn1ncnc1NC(=O)c1c(F)cc(F)cc1F the result was 16.92%.
For COc1cc(NC(=O)c2cncc(Br)c2)ncn1 the result was -9.428%.
For CN(C)c1nccc(C2CNCCO2)n1 (stereo unspecified) the result was 8.997%.
For Cc1noc(CN)n1 the result was 13.93%.
For Cc1cnccc1CN the result was -6.809%.
For COc1cccc(OC(C)CN)c1 (stereo unspecified) the result was 5.698%.
For COCC(C)NC(=O)c1cc(S(C)(=O)=O)ccc1Cl (stereo unspecified) the result was 9.803%.
For OCc1cc(Br)cs1 the result was 21.57%.
For COCC(C)NC(=O)OCC(F)(F)F (stereo unspecified) the result was -4.056%.
For N#CC(c1ccc(Br)cc1)N1CCNCC1 (stereo unspecified) the result was 8.681%.
For Cc1cnn(CCNCc2cccc(C(N)=O)c2)c1 the result was 25.67%.
For CN(C)c1ncc(CN2CCS(=O)(=O)CC2)cn1 the result was 9.531%.
For CCNC(=O)CNc1noc(C(C)(C)C)n1 the result was 9.774%.
For CCN1CC(C)C(=O)N(CCN2CCOCC2)C1=O (stereo unspecified) the result was -3.438%.
For C1CC(C2CNC2)CCO1 the result was -10.5%.
For COCC(O)CN(C)Cc1c(C)cccc1C (stereo unspecified) the result was 15.01%.
For CC(C)C[C@H](N)c1nnc2ccccn12 the result was 6.835%.
For CSCCC(NC(N)=O)C(=O)Nc1cccc(F)c1 (stereo unspecified) the result was 4.862%.
For CC(=O)N1CCc2onc(-c3ccc(F)c(F)c3)c2C1 the result was 51.13%.
For COc1cccc(NC(=O)N2CCN(C3CC3)CC2)c1 the result was 38.17%.
For CCN1CCN(CC(=O)Nc2cc(C)cc(C)c2)CC1 the result was 42.82%.
For NC(=O)C1CCN(C(=O)COC(=O)c2cccs2)CC1 the result was -1.461%.

From ChEMBL document CHEMBL3988442, “University of Dundee, Small-Polar-MMV Screening Library” (2021).